PubChem BioAssay AID504784 | Drosophila RNAi Screening Center, 2011
The screen tested about 17,000 reagents; this is an unselected part of those with a known target gene and a result. 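Each column is one replicate's B-score; the combined score over replicates was not deposited, so single values may mislead.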 Reagents against one gene are numbered here. Names joined by + are all predicted targets of the reagent. Reagent sequences are not shown.

Aim: 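Search for regulators of lipid droplet storage in oleate-fed fly cells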 (primary screen)
Cell system: Drosophila Kc167 embryonic cells
Reagents: long dsRNA against Drosophila genes, about 250 ng dsRNA per well
Duration: 4 days
Treatment: cells fed 400 µM oleic acid bound to BSA
Detection: 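Microscope images give a droplet-to-nucleus area ratio, taken as log and converted to a screen-wide B-score; higher values mean greater lipid storage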
Scale: droplet/nuclear area B-score: higher = more stored lipid (overstorage)

no.	target gene	reagent	droplet/nuclear area B-score, replicate 1	droplet/nuclear area B-score, replicate 2	droplet/nuclear area B-score, replicate 3
1	aay	1	0.0442	-0.1	
2	ETH	1	-0.0419	0.0931	
3	Cip4	1	1.12	-0.623	
4	Cip4	2	0.524	-0.921	
5	dpr12	1	0.561	0.786	
6	dpr12	2	-1.27	-0.223	
7	LysX	1	-0.191	0.167	
8	CG13110	1	0.763	0.13	0.171
9	igl	1	-3.25	-0.291	
10	betaGlu	1	-0.236	10.7	
11	CarT	1	-0.298	1.25	
12	Fkbp59	1	0.721	-2.04	
13	Chi	1	0.284	0.374	
14	CG1671	1	0.926	-0.591	
15	Vha100-5	1	-0.435	-2.89	
16	CG43333	1	-0.664	1.66	
17	CG43333	2	1.52	1.51	
18	CG13907	1	0.03	-1.23	
19	Fmr1	1	0.297	-0.473	
20	dpr19	1	0.927	1.28	
21	Gpdh1	1	0.201	-0.0961	-0.388
22	Gpdh1	2	2.19	-4.23	
23	Csp	1	0.0466	-0.558	-0.695
24	mod(mdg4) + pre-mod(mdg4)-Z + pre-mod(mdg4)-T	1	0.247	1.38	
25	mod(mdg4) + pre-mod(mdg4)-Z + pre-mod(mdg4)-T	2	0.62	-2.13	
26	CG17019	1	-0.68	-1.94	
27	Dbp80	1	-0.701	-0.481	
28	CG6961 + CG18259	1	-0.754	1.25	
29	CG6961 + CG18259	2	-0.0135	-2.71	
30	CG7900	1	0.657	-0.338	-0.00294
31	CG7900	2	1.84	0.364	
32	CG33269	1	1.19	0.335	
33	ppk14	1	0.0242	-2.74	
34	CG10914	1	1.29	1.63	
35	Xrp1	1	-1.2	-0.344	
36	Xrp1	2	0.631	-1.73	
37	GstD10	1	-0.0817	0.106	
38	ND-20L	1	-0.645	1.38	
39	Cdk12	1	2	5.09	1.57
40	Cdk12	2	1.95	-0.157	
41	lft	1	1.31	-0.39	
42	CG4613	1	-0.129	1.58	
43	cyc	1	-0.398	-0.515	
44	CG5335	1	-0.0328	0.093	
45	CG5023	1	0.377	0.82	
46	Rif1	1	-1.61	0.567	
47	CG3987	1	0.0591	0.0132	
48	Spt3	1	-0.556	-0.927	
49	Jon99Ci	1	0.587	-1.57	
50	Prp18	1	1.89	4.43	
51	CG5002	1	-0.134	0.635	
52	CG7488	1	-1.37	-0.509	
53	SA2	1	0.117	3.26	
54	CG31051	1	0.44	-0.685	
55	nes	1	0.116	0.464	
56	Gbp3	1	-0.853	0.002	

Ordered by “droplet/nuclear area B-score, replicate 1” (highest first): some entries from above
target gene	reagent	droplet/nuclear area B-score, replicate 1	droplet/nuclear area B-score, replicate 2	droplet/nuclear area B-score, replicate 3
Prp18	1	1.89	4.43	
Jon99Ci	1	0.587	-1.57	
CG5002	1	-0.134	0.635	
Spt3	1	-0.556	-0.927	
CG7488	1	-1.37	-0.509	
